# This is one part of the list.
# Protein sequences, listed by entry. Tags and fused reporters are not part of them.
# UniProt Q0JBA9, entry or part of it: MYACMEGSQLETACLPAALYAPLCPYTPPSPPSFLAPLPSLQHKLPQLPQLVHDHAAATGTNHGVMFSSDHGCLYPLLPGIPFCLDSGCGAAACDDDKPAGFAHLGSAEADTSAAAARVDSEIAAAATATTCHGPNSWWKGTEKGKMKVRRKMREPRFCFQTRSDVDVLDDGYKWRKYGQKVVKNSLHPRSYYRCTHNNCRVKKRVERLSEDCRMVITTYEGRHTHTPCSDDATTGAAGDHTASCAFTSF
# Target: OsWRKY34 (Oryza sativa, UniProt Q0JBA9 1-250)
# Experiment: protein-binding microarray (RPBM); PBS, 2% BSA, 51.3 ng/ul salmon testes DNA, 50 uM zinc acetate, 200 nM TF, 25 C, 1 h; high values mean tight binding
# Conditions: protein: recombinant; tags: N-terminal polyhistidine and DsRed monomer fusion (pET32a); label: CyDye5-dUTP incorporated in the synthesized complementary strand; 3' TTTTT single-stranded linker to array surface; dsDNA, one strand shown
# Procedure, shortened: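 Using Ni–NTA, transcription factors fused N-terminally to polyhistidine and DsRed were purified after expression in E. coli BL21-CodonPlus. These were incubated at 200 nM with a blocked, double-stranded custom Agilent array for 1 h at 25 °C in a buffer containing 50 µM zinc acetate, and the array was washed. The binding signal is per-feature fluorescence intensity (arbitrary units) on an Axon 4000B scanner.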
row,Sequence,binding signal
1,ACACTCGCTTTCTGAACCTTACAGAAATTTCGCTGGCCATCGGAGTCACCTAGTGCAG,8230 fluorescence intensity (a.u.)
2,GGGTTGCATTTTCCCCAAACTTCCGTGGGACTTCCTTCAACGGAGTCACCTAGTGCAG,8290 fluorescence intensity (a.u.)
3,CCTCTCTCTGTTGCGACCATTGTCTCCTCTCCTATCCCAACGGAGTCACCTAGTGCAG,10500 fluorescence intensity (a.u.)
4,CCCGCCGCCGCTCTGCTCCACTTCACCTGCCGCCGCGCGCCGGAGTCACCTAGTGCAG,9330 fluorescence intensity (a.u.)
5,TGCTCCTTTTCTTTTGTTTCTCTGATTGCTGTTAGTTGTTCGGAGTCACCTAGTGCAG,10900 fluorescence intensity (a.u.)
6,GAGGTTTTTAATCGAAGTTTATTTTCCAGTCGTCGTTTTTCGGAGTCACCTAGTGCAG,9230 fluorescence intensity (a.u.)
7,CTTTAGCGGATTTTTTTGGGGTGATTTGCGGTGACCTCCGCGGAGTCACCTAGTGCAG,10600 fluorescence intensity (a.u.)
8,GTACGCGCGCGAGCCGCCGTTCGCAACACTGCAGCTTCCACGGAGTCACCTAGTGCAG,8160 fluorescence intensity (a.u.)
9,GATGGCCTTGACCATGCAGAAACAGGCATGGTTTCCTTCGCGGAGTCACCTAGTGCAG,64500 fluorescence intensity (a.u.)
10,ACCTACACGGCGTGCGCAATAACTGACATTTTTCTATTATCGGAGTCACCTAGTGCAG,8270 fluorescence intensity (a.u.)
11,GAGGAAAATAACTATGGCTGTGTTCTAACTTGGGGTTGGGCGGAGTCACCTAGTGCAG,8220 fluorescence intensity (a.u.)
12,CCTTTTTTTCCGAACCCGACCGGGTCTCTACCAACCGTTCCGGAGTCACCTAGTGCAG,9210 fluorescence intensity (a.u.)
13,ATATCTGCTTCTACGTCGTCTACGAAGCCGCCGAGACGTCCGGAGTCACCTAGTGCAG,9320 fluorescence intensity (a.u.)
14,CTCTCCTCCTCCGTTCCTGACTCCACCACTCACATTCATTCGGAGTCACCTAGTGCAG,13200 fluorescence intensity (a.u.)
15,ACTGCCTTACCTGTTCATCTTCCAAACTGATTTGGTTTGTCGGAGTCACCTAGTGCAG,9370 fluorescence intensity (a.u.)
16,GGGTGTGTTTGGTTTGCTACCATGTCAAAATATTGGTATTCGGAGTCACCTAGTGCAG,9570 fluorescence intensity (a.u.)
17,ATATGTTAACACGGAAGCCTATTTTGTCTTTTTTTACGGTCGGAGTCACCTAGTGCAG,9740 fluorescence intensity (a.u.)
18,TCGCAACGGTCTCAACACTTTTCTCGCTTCCCGCCATTTTCGGAGTCACCTAGTGCAG,13300 fluorescence intensity (a.u.)
19,CCCACTGACACGTGTGTCCCACTTTTTTTTAGCTTTTTATCGGAGTCACCTAGTGCAG,8250 fluorescence intensity (a.u.)
20,TATTCTTGGGTTCTTAGTTCTTGCTGAACTGCATATGTCACGGAGTCACCTAGTGCAG,9650 fluorescence intensity (a.u.)
21,GTCCACGCTCTAGGAAATCCACCGCACCGCCTTCGCACCACGGAGTCACCTAGTGCAG,8900 fluorescence intensity (a.u.)

row,Sequence,binding signal
1,ACACCCCACTCCTCACCCTCACGCAAAGTTCCCACACAACCGGAGTCACCTAGTGCAG,8250 fluorescence intensity (a.u.)
2,TCCTCTCTCTCTCTCTCTCTCTCTCCTCCTTTGGAGTTGTCGGAGTCACCTAGTGCAG,10500 fluorescence intensity (a.u.)
3,GCGTTTATCATTCTGTTTGTTTTTATAACAAAGCTGCTATCGGAGTCACCTAGTGCAG,9330 fluorescence intensity (a.u.)
4,ATTCTCTTCTTCATCTAGACTTAAATTTATTGCATGATGTCGGAGTCACCTAGTGCAG,8420 fluorescence intensity (a.u.)
5,CTCTTCCTTTCCTTGCTTCAGCTTCTTCTACTTATTAATCCGGAGTCACCTAGTGCAG,9180 fluorescence intensity (a.u.)
6,GTTGGTAATGGTCACTCTATTCCGGTTGTTTGCCGTGGCACGGAGTCACCTAGTGCAG,8040 fluorescence intensity (a.u.)
7,GGTTGATTTGGTTCTTAGCCAGGTATTTTTGCAGGTGTCGCGGAGTCACCTAGTGCAG,11100 fluorescence intensity (a.u.)
8,CCTCAAAATTTCGAAAATTGCGCCCGTCTTCCTTCCCTTCCGGAGTCACCTAGTGCAG,8450 fluorescence intensity (a.u.)
9,GCTCGCGCTCCACCCAACGGCCCAGGAACCAGCCCACGCACGGAGTCACCTAGTGCAG,9300 fluorescence intensity (a.u.)
10,AATTTGGTTTATTTTTTGTTCCACCGAAAAATGTTTCACCCGGAGTCACCTAGTGCAG,9170 fluorescence intensity (a.u.)
11,AGTCCAAGCAGCCCACGAAGTACCCGGCATTTATTTTCCTCGGAGTCACCTAGTGCAG,9300 fluorescence intensity (a.u.)
12,GTCTAAAAGATCAGTTCAAGTCGTGTTACCATGTGTTTTGCGGAGTCACCTAGTGCAG,9970 fluorescence intensity (a.u.)
13,CTCCTCTTTTCCTCCTGGTCTTCGTCTTCCTCAAGCCATGCGGAGTCACCTAGTGCAG,8050 fluorescence intensity (a.u.)
14,CGTTGTCTTGTGCTCGCTTGCTTCCGTTTGACGCGGTAGCCGGAGTCACCTAGTGCAG,8840 fluorescence intensity (a.u.)
15,GTGGCTGTGATTGTGTGATTGTGTACCTGTTTGTAGTGAACGGAGTCACCTAGTGCAG,12700 fluorescence intensity (a.u.)
16,ATCAGTCAAAATTCCAAAAGTTGGTCTTGTCCTTCATGTCCGGAGTCACCTAGTGCAG,8160 fluorescence intensity (a.u.)
17,AGTTGATCTGCACCGGTTTTCAAAGTTTGGGAATGTGTTACGGAGTCACCTAGTGCAG,8850 fluorescence intensity (a.u.)
18,GGTCAATTTAGGGCACACACCAAACCAGCCCTTACAACTTCGGAGTCACCTAGTGCAG,8620 fluorescence intensity (a.u.)
19,GCATGCACAGTCACACACCCACACCCAAACAGAACAAAAACGGAGTCACCTAGTGCAG,8640 fluorescence intensity (a.u.)
20,CTAAATCTTAGCAGGACCCACCACATACCATGTTTTATACCGGAGTCACCTAGTGCAG,8660 fluorescence intensity (a.u.)
21,GGTGCTTTTGGTCAGTGGGAGATAGATATGGTTGCTATGTCGGAGTCACCTAGTGCAG,8120 fluorescence intensity (a.u.)

# A section of the results above:
row,Sequence,binding signal
13,ATATCTGCTTCTACGTCGTCTACGAAGCCGCCGAGACGTCCGGAGTCACCTAGTGCAG,9320 fluorescence intensity (a.u.)
14,CTCTCCTCCTCCGTTCCTGACTCCACCACTCACATTCATTCGGAGTCACCTAGTGCAG,13200 fluorescence intensity (a.u.)

# Further entries follow:

row,Sequence,binding signal
1,TCCTCCTTTCTCGCTCTCGCTCTGTCCGATCGGAGCCATGCGGAGTCACCTAGTGCAG,8490 fluorescence intensity (a.u.)
2,CATACTGATGCATCCTTTTTTGTGTCCACCTTTTGTTTTTCGGAGTCACCTAGTGCAG,8130 fluorescence intensity (a.u.)
3,GTATCTGTTGGAGGTCCATTTTCATCTCGCATATGCCATACGGAGTCACCTAGTGCAG,12000 fluorescence intensity (a.u.)
4,GCGATTATGTGGTCTGTTATCAAAATTATGGCAAATTGTTCGGAGTCACCTAGTGCAG,9250 fluorescence intensity (a.u.)
5,TCTCGTCTTCCGCCCACTGTGTCCGGGCCCCACCATCCCTCGGAGTCACCTAGTGCAG,8140 fluorescence intensity (a.u.)
6,TACGAATTGTCAGGTAAATATTTCAGTCTGGTCTTTTCTCCGGAGTCACCTAGTGCAG,9070 fluorescence intensity (a.u.)
7,CGTTTTCTTTCTTGTTTTCAGGCACCAAATCTCTGCTGTTCGGAGTCACCTAGTGCAG,11200 fluorescence intensity (a.u.)
8,CCACGACACCGCTTCCAGCCCACGCAACCCTCGAACAATGCGGAGTCACCTAGTGCAG,8170 fluorescence intensity (a.u.)
9,TAGACTATTATCCTTTTAGACCTTTTGTTTGTAGCTAATTCGGAGTCACCTAGTGCAG,8750 fluorescence intensity (a.u.)
10,TGGGAGTGTTGTTATTCTCGTGCGCGTTGTGGTTAGTGGGCGGAGTCACCTAGTGCAG,9630 fluorescence intensity (a.u.)
11,TAGTGCATTATCCGTTCGTATCCGCTCCGTTTTCATCTCCCGGAGTCACCTAGTGCAG,13300 fluorescence intensity (a.u.)
12,GAATATCTGAACTTTCCCCGTTCTATTGTCCATGCATACGCGGAGTCACCTAGTGCAG,8070 fluorescence intensity (a.u.)
13,TCGACTCCTAACTGCAGCTCATGATTTTCTATATATATATCGGAGTCACCTAGTGCAG,11400 fluorescence intensity (a.u.)
14,GTCTCATCTTCCTCAGGGTTCACAATTCCGATGAAAATCGCGGAGTCACCTAGTGCAG,8430 fluorescence intensity (a.u.)
15,CCCACCACACCAGTAACCATAATTAACCTCTTCCTCACTGCGGAGTCACCTAGTGCAG,8300 fluorescence intensity (a.u.)
16,GAATCCATTAGCTTATACTCTCTCCATCTATTTTTGATAACGGAGTCACCTAGTGCAG,9190 fluorescence intensity (a.u.)
17,CCGCCACCGCCACCTCGCTGTCGTGGCTACCTCAGCCGTCCGGAGTCACCTAGTGCAG,9190 fluorescence intensity (a.u.)
18,GGCTGGAACGTCGAAATCCTCCGCCTCGCCGCGTGCCTCTCGGAGTCACCTAGTGCAG,10800 fluorescence intensity (a.u.)
19,GTTTTTCATATTTGACGATCAAACGGTGGTTTTAAAACTTCGGAGTCACCTAGTGCAG,8140 fluorescence intensity (a.u.)
20,GCCAATCTACTATACATGTTAGGTTTAACATTGACTAACACGGAGTCACCTAGTGCAG,8810 fluorescence intensity (a.u.)
21,TCTGCCCGTCTGACTCTTGACTAGAGTATTTTACATCAATCGGAGTCACCTAGTGCAG,8820 fluorescence intensity (a.u.)

# 2 entries drawn at random from those above, as already listed:
row,Sequence,binding signal
1,TCCTCCTTTCTCGCTCTCGCTCTGTCCGATCGGAGCCATGCGGAGTCACCTAGTGCAG,8490 fluorescence intensity (a.u.)
7,CGTTTTCTTTCTTGTTTTCAGGCACCAAATCTCTGCTGTTCGGAGTCACCTAGTGCAG,11200 fluorescence intensity (a.u.)

# Remaining list, next part:

row,Sequence,binding signal
1,TTCCAGTCATTTGCCCCTTTGACCTTGGTAGCTGTAACGCCGGAGTCACCTAGTGCAG,10800 fluorescence intensity (a.u.)
2,CATATGCTTCACTTACCTCTACCAGCTGCTACTGCTTCTACGGAGTCACCTAGTGCAG,12100 fluorescence intensity (a.u.)
3,ATCCTGTTTGATATCAGCTCGCCCTCGCTGGGCGTGTCGACGGAGTCACCTAGTGCAG,9310 fluorescence intensity (a.u.)
4,TGTTCACACGTATTCCTTGCCCATGTCACCAAAATCTCAACGGAGTCACCTAGTGCAG,10200 fluorescence intensity (a.u.)
5,TACTTACCGATTTCATCAGCATTCTTGTTTCAGAGTAAGACGGAGTCACCTAGTGCAG,8510 fluorescence intensity (a.u.)
6,TCTCGGGATCATCAGTTCACTATTGTAATATGTGGTATTTCGGAGTCACCTAGTGCAG,8110 fluorescence intensity (a.u.)
7,GTCAATTCTCAATCGTTTTCCGTCCGCCTTGATCGCTATTCGGAGTCACCTAGTGCAG,11800 fluorescence intensity (a.u.)
8,TCTACTCCAGCATTGCTGCTGCGCGACTCGCCGTCCTCCACGGAGTCACCTAGTGCAG,8340 fluorescence intensity (a.u.)
9,GCTGCCGATTGATGATTCCCTGCCGCCCGCGCCACAAAAACGGAGTCACCTAGTGCAG,8680 fluorescence intensity (a.u.)
10,AGATTTTCGCTTGTTTCATCCAACCCCTGTACCGTGCGCACGGAGTCACCTAGTGCAG,10400 fluorescence intensity (a.u.)
11,TGATGTCTTATCTCGGGTCTCATCTTTTCGCTTATGCTTACGGAGTCACCTAGTGCAG,8990 fluorescence intensity (a.u.)
12,CAGTCCCAGTGCACCAGCCAGTCATCACCAACCACCATCCCGGAGTCACCTAGTGCAG,8490 fluorescence intensity (a.u.)
13,ACCTCCTCCGGAGCTTCGCCCCTAGCCTCAGCCGCGCCCTCGGAGTCACCTAGTGCAG,11100 fluorescence intensity (a.u.)
14,CCATCGTCTACCTGTACGTACGTATATACCAAGCTAGTTACGGAGTCACCTAGTGCAG,8790 fluorescence intensity (a.u.)
15,CGTCGATCTCTATCTCTCTCTCTCGCTTGTTCTTCTTCACCGGAGTCACCTAGTGCAG,15200 fluorescence intensity (a.u.)
16,TTCCTTATCTGTCTATCACACACCACCTGAGTCACTGACACGGAGTCACCTAGTGCAG,9420 fluorescence intensity (a.u.)
17,ATATACTACTAGCTCATCATATTGTTTACTACTATATAAACGGAGTCACCTAGTGCAG,9770 fluorescence intensity (a.u.)
18,AATCACAACTCTTCACCATTCACTTTTACCTGTTTTTGTTCGGAGTCACCTAGTGCAG,9390 fluorescence intensity (a.u.)
19,CCATCGAAAAAAGACCCTTTTTTCACCCAAGCTTTCTTGCCGGAGTCACCTAGTGCAG,8480 fluorescence intensity (a.u.)
20,TTCCACACCAACCTATTCATGTTCCTGGTCGTCAACCTCGCGGAGTCACCTAGTGCAG,10000 fluorescence intensity (a.u.)
21,CTTTGTCCATATGACGTATCCGCAGGGGCAGATCCTCTCTCGGAGTCACCTAGTGCAG,8060 fluorescence intensity (a.u.)
